Results published in US20260034237 (published 2026).

Test: general procedure: solution-phase peptide synthesis; HATU/DIPEA
Details: conjugation step
For “4-((2S,5S,8S,35S,36R,37R,38R)-8-(6-(2,5-dioxo-2,5-dihydro-1H-pyrrol-1-yl)hexanamido)-35,36,37,38,39-pentahydroxy-5-isopropyl-4,7,14-trioxo-33-((2S,3R,4R,5R)-2,3,4,5,6-pentahydroxyhexyl)-2-(3-ureidopropyl)-15,18,21,24,27,30-hexaoxa-3,6,13,33-tetraazanonatriacontanamido)benzyl ((S)-1-(((S)-1-(((3S,4S,5S)-1-((S)-2-((1R,2R)-3-(((1R,2S)-1-hydroxy-1-phenylpropan-2-yl)amino)-1-methoxy-2-methyl-3-oxopropyl)pyrrolidin-1-yl)-3-methoxy-5-methyl-1-oxoheptan-4-yl)(methyl)amino)-3-methyl-1-oxobutan-2-yl)amino)-3-methyl-1-oxobutan-2-yl)(methyl)carbamate”, the conjugation yield was 28.23%.
“{4-[(2S)-5-(carbamoylamino)-2-[(2S)-2-[(2S)-2-[6-(2,5-dioxo-2,5-dihydro-1H-pyrrol-1-yl)hexanamido]-6-(2-{4-[(16S,17R,18R,19R)-16,17,18,19,20-pentahydroxy-14-[(2S,3R,4R,5R)-2,3,4,5,6-pentahydroxyhexyl]-2,5,8,11-tetraoxa-14-azaicosan-1-yl]-1H-1,2,3-triazol-1-yl}acetamido)hexanamido]-3-methylbutanamido]pentanamido]phenyl}methyl N-[(1S)-1-{[(1S)-1-{[(3S,4S,5S)-1-[(2S)-2-[(1R,2R)-2-{[(1R,2S)-1-hydroxy-1-phenylpropan-2-yl]carbamoyl}-1-methoxy-2-methylethyl]pyrrolidin-1-yl]-3-methoxy-5-methyl-1-oxoheptan-4-yl](methyl)carbamoyl}-2-methylpropyl]carbamoyl}-2-methylpropyl]-N-methylcarbamate” showed a conjugation yield of 54.43%.
Work on “{4-[(2S)-5-(carbamoylamino)-2-[(2S)-2-[(2S)-2-[6-(2,5-dioxo-2,5-dihydro-1H-pyrrol-1-yl)hexanamido]-6-({1-[(17S,18R,19R,20R)-17,18,19,20,21-pentahydroxy-15-[(2S,3R,4R,5R)-2,3,4,5,6-pentahydroxyhexyl]-3,6,9,12-tetraoxa-15-azahenicosan-1-yl]-1H-1,2,3-triazol-5-yl}formamido)hexanamido]-3-methylbutanamido]pentanamido]phenyl}methyl N-[(1S)-1-{[(1S)-1-{[(3S,4S,5S)-1-[(2S)-2-[(1R,2R)-2-{[(1R,2S)-1-hydroxy-1-phenylpropan-2-yl]carbamoyl}-1-methoxy-2-methylethyl]pyrrolidin-1-yl]-3-methoxy-5-methyl-1-oxoheptan-4-yl](methyl)carbamoyl}-2-methylpropyl]carbamoyl}-2-methylpropyl]-N-methylcarbamate” yielded a conjugation yield of 41.14%.
